The test has as its target T1, Sirt2 (NAD-dependent deacetylase sirtuin-2), endogenous mouse (mouse (endogenous in liver and AML12)) (UniProt Q8VDQ8).
T1 sequence: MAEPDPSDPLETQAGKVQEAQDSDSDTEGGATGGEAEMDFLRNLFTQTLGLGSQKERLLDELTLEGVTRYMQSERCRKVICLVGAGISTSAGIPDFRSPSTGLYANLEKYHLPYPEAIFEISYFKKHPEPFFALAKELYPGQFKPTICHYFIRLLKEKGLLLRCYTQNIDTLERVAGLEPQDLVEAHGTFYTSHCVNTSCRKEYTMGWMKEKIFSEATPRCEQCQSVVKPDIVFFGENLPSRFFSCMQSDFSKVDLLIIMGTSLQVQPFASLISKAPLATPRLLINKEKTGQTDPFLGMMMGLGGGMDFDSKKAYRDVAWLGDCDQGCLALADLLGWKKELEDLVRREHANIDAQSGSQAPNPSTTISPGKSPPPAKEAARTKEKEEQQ
Put plainly: affinity purification with mass spectrometry; IP-MS of liver tissues of wild-type mice; the precipitating antibody is not told.

Chains of the proteins cited; added tags and fusions are not shown.
UniProt P52480: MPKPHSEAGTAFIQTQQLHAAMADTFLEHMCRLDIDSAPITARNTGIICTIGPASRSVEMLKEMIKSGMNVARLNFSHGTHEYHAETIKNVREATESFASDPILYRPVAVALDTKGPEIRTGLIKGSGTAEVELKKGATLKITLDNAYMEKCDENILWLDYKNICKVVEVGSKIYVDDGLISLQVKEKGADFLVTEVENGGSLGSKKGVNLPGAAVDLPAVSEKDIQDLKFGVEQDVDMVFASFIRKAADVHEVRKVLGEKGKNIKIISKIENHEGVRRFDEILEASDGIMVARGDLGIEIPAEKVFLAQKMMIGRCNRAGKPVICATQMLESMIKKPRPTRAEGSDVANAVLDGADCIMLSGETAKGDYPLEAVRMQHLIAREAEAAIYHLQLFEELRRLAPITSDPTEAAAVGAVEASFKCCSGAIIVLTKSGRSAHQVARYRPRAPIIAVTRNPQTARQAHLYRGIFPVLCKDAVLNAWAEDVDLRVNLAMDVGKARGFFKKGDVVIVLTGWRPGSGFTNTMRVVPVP

No constants are given. Whether binding was seen depends on the method and setting. In cells and extracts the contact can be indirect. These calls come from enrichment with a bait or labelling near it, and not all partners need be listed.

With “PKM2 (M2 isoform of pyruvate kinase), endogenous mouse (from UniProt P52480 1-531)”, the binding result was “binds”.

The record behind these values is publication PMC11247741.
